The results in this text go back to publication PMC12431657, “Discovery and mechanistic insights of dibenzoylmethane as a broad spectrum inhibitor of coronavirus” (PLOS Pathogens, 2025).

Where a name gives a salt, the structure may show the parent alone. Read-outs that look alike come from different tables or passages of the source. Among all 3,300 compounds or so, about 60 (2%) showed an effect of 50% or more. The list shows a part of the results.

The assay relates to HCoV-OC43. On the set-up: species or system RD; HTS, protection from HCoV-OC43 induced cell death, luminescent cell viability (CellCounting-Lite 2.0), inhibition rate. The conditions noted are these: 24 h post infection, 1 h compound pre-incubation, 10 µM, inhibitor.

As for `C[C@@H]1O[C@@H](O[C@H]2[C@H](O[C@H]3CC[C@@]4(C)[C@@H](CC[C@]5(C)[C@@H]4CC=C4[C@@H]6CC(C)(C)CC[C@]6(C(=O)O[C@@H]6O[C@H](CO[C@@H]7O[C@H](CO)[C@@H](O)[C@H](O)[C@H]7O)[C@@H](O)[C@H](O)[C@H]6O)CC[C@]45C)[C@]3(C)CO)OC[C@H](O)[C@@H]2O)[C@H](O)[C@H](O)[C@H]1O` [Dipsacoside B], the “OC43 Inhibition rate” value was determined as 0.7%. Regarding `C[C@H](CCC(=O)NCC(=O)O)[C@H]1CC[C@H]2[C@@H]3[C@H](O)C[C@@H]4C[C@H](O)CC[C@]4(C)[C@H]3CC[C@]12C` [Glycochenodeoxycholic acid (sodium salt)], the “OC43 Inhibition rate” value (OC43 Inhibition rate, 24 h) worked out at 4.8%. For `Cc1nnc(SCC2=C(C(=O)O)N3C(=O)[C@@H](NC(=O)Cn4cc(Cl)c(=O)c(Cl)c4)[C@H]3SC2)s1` [Cefazedone], the “OC43 Inhibition rate” value was 0.1%. Take `C[C@@H]1O[C@@H](OC[C@H]2O[C@@H](Oc3cc(O)c4c(c3)O[C@H](c3ccc(O)c(O)c3)CC4=O)[C@H](O)[C@@H](O)[C@@H]2O)[C@H](O)[C@H](O)[C@H]1O` [Eriocitrin]: the “OC43 Inhibition rate” value was 0%. Consider `C[C@]12CCC(=O)C=C1C=C[C@@H]1[C@@H]2CC[C@@]2(C)[C@H]1CC[C@@]21CCC(=O)O1` [Canrenone], for which the “OC43 Inhibition rate” value is on record as -0.1%. Still for that read-out and setting: then `CC1(C)[C@@H](O)CC[C@]2(C)[C@H]3C(=O)C=C4[C@@H]5C[C@@](C)(C(=O)O)CC[C@]5(C)CC[C@@]4(C)[C@]3(C)CC[C@@H]12` [18β-Glycyrrhetinic acid], with 0.1%; and `CC1=C(O)C(=O)C(C)O1` (stereo not shown) [Furaneol], with 0.6%. Still for that read-out and setting: next, `NCCS` [Cysteamine (hydrochloride)]: -0.2%. The same measure, in the same setting: next, `O=c1oc2cc(O)ccc2c2ccccc12` [Urolithin B]: 3.9%.

As for `O=C(/C=C\c1ccc(O)c(O)c1)N[C@@H](Cc1ccc(O)c(O)c1)C(=O)O` [Clovamide], the “OC43 Inhibition rate” value is listed as -1.1%. The same measure, in the same setting: then `O=c1cc(-c2ccc(O)cc2)oc2cc(O)c([C@@H]3O[C@H](CO)[C@@H](O)[C@H](O)[C@H]3O[C@@H]3OC[C@H](O)[C@H](O)[C@H]3O)c(O)c12` [Isovitexin 2''-O-arabinoside], with -0.5%. On the same count and under the same terms, next, `Oc1cccnc1` [3-Hydroxypyridine]: 2.1%; `COc1c2ccoc2cc2oc(C)cc(=O)c12` [Visnagin]: 1.4%. As for `c1c2c(cc3c1OCO3)-c1cc3ccc4c(c3c[n+]1CC2)OCO4` [Coptisine (chloride)], for the setting “OC43 Inhibition rate, 24 h”, the “OC43 Inhibition rate” value stood at 3.2%. On to `CCc1ccc(C=O)cc1` [4-Ethylbenzaldehyde], for which the “OC43 Inhibition rate” value turned out to be 0.5%. For `C[C@@H]1O[C@@H](OC[C@H]2O[C@@H](OCCc3ccc(O)c(O)c3)[C@H](O)[C@@H](OC(=O)/C=C/c3ccc(O)c(O)c3)[C@@H]2O)[C@H](O)[C@H](O)[C@H]1O` [Forsythoside I], where the note is “OC43 Inhibition rate, 24 h”, the “OC43 Inhibition rate” value is given as -1.6%.

For the compound `CC(=O)OC(C)(C)C1CC=C(C)CC1` (stereo not drawn) [α-Terpinyl acetate], the “OC43 Inhibition rate” value is reported as -0.5%.

`C=C1C(=O)O[C@@H]2[C@H]3C(CO)=CC(=O)C3=C(C)C[C@H](OC(=O)Cc3ccc(O)cc3)[C@@H]12` [Lactupicrin]: the “OC43 Inhibition rate” value is reported as -0.5%. Regarding `NCC(=O)CCC(=O)O` [5-Aminolevulinic acid (hydrochloride)], the “OC43 Inhibition rate” value is listed as 1.1%. For `C=C(C)C(=O)O[C@H]1[C@@H]2[C@H](C)C(=O)O[C@@H]2C[C@@H](C)[C@@H]2C=CC(=O)[C@]21C` [Arnicolide D], the “OC43 Inhibition rate” value is on record as -1.2%.

Turning to `O=C1O[C@H]([C@@H](O)CO)C(O)=C1O` [L-Ascorbic acid (sodium salt)], the “OC43 Inhibition rate” value (OC43 Inhibition rate, 24 h) is reported as -0.4%. On to `CC(C)=CCC[C@](C)(O[C@@H]1O[C@H](CO)[C@@H](O)[C@H](O)[C@H]1O)[C@H]1CC[C@]2(C)[C@@H]1[C@H](O)C[C@@H]1[C@@]3(C)CC[C@H](O)C(C)(C)[C@@H]3CC[C@]12C` [Ginsenoside C-K], for which the “OC43 Inhibition rate” value is on record as 38.7%. The same measure, in the same setting: then `CCCCCCCCCCCCCC(=O)OC[C@H](COP(=O)(O)OCCN)OC(=O)CCCCCCCCCCCCC` [(2R)-3-(((2-Aminoethoxy)(hydroxy)phosphoryl)oxy)propane-1,2-diyl ditetradecanoate], with -0.3%; and `CCCCOC(=O)c1ccccc1C(=O)OCCCC` [Dibutyl phthalate], with -1%; and `O=Cc1ccc(O)cc1O` [2,4-Dihydroxybenzaldehyde], with 0.3%.

Regarding `O=C(O)/C=C/C(=O)O` [Fumaric acid], the “OC43 Inhibition rate” value turned out to be 4.1%.

`O=c1cc(-c2ccc(O)cc2)oc2cc(O)c([C@@H]3O[C@H](CO)[C@@H](O)[C@H](O)[C@H]3O[C@@H]3O[C@H](CO)[C@@H](O)[C@H](O)[C@H]3O)c(O)c12` [Meloside A]: the “OC43 Inhibition rate” value is on record as -0.6%.

With `O=C1N[C@@H](Cc2ccc(O)cc2)C(=O)N2CCC[C@@H]12` [Maculosin], the “OC43 Inhibition rate” value was -0.1%.

Consider `C[C@H](CCC(=O)O)[C@H]1CC[C@H]2[C@@H]3C[C@H](O)[C@@H]4C[C@H](O)CC[C@]4(C)[C@H]3CC[C@]12C` [Hyodeoxycholic acid], for which the “OC43 Inhibition rate” value was 0.4%. Still for that read-out and setting: then `C/C=C/c1cc(OC)c2c(c1)[C@@H](C)[C@H](c1ccc3c(c1)OCO3)O2` [Licarin B], with 5.2%. On to `CC(C)CCC[C@@H](C)[C@H]1CC[C@@]2(C)C3=C(CC[C@]12C)[C@@]1(C)CC[C@H](O)C(C)(C)[C@@H]1CC3` [Dihydrolanosterol], for which the “OC43 Inhibition rate” value is on record as -1.3%. Same read-out and setting: then `C=C[C@H]1[C@H](O[C@@H]2O[C@H](CO)[C@@H](O)[C@H](O)[C@H]2O)OC=C2C(=O)OCC[C@]21O` [Swertiamarin], with 5.1%; and `C=C(CCC=C(C)C)[C@H]1CC[C@]2(C)[C@@H]1[C@H](O)C[C@@H]1[C@@]3(C)CC[C@H](O)C(C)(C)[C@@H]3[C@@H](O[C@@H]3O[C@H](CO)[C@@H](O)[C@H](O)[C@H]3O[C@@H]3O[C@@H](C)[C@H](O)[C@@H](O)[C@H]3O)C[C@]12C` [Ginsenoside Rg6], with 16.2%; and `CN=C(N)N` [1-Methylguanidine hydrochloride], with 0.8%. As to `C[C@H](CCC(=O)NCC(=O)O)[C@H]1CC[C@H]2[C@@H]3[C@H](O)C[C@@H]4C[C@H](O)CC[C@]4(C)[C@H]3C[C@H](O)[C@]12C` [Glycocholic acid (hydrate)], the “OC43 Inhibition rate” value (OC43 Inhibition rate, 24 h) is on record as -0.1%. Consider `COc1ccc(-c2cc(=O)c3c(O)cc(O)cc3o2)cc1-c1c(O)cc(O)c2c(=O)cc(-c3ccc(O)cc3)oc12` [Bilobetin], for which the “OC43 Inhibition rate” value is 19.8%. On the same count and under the same terms, then `CC1=C[C@]23C(=O)[C@H](C=C4COC(C)(C)OC4C24OC(C)(C)OC14)[C@@H]1[C@H](CC3C)C1(C)C` (stereo partly shown) [Ingenol-3,4,5,20-diacetonide], with 0.5%. On the same count and under the same terms, next, `CC(C)C1=CC(=O)[C@@](C)([C@H]2[C@H](O)C[C@@]3(C)[C@@H]4CC=C5[C@@H](CC[C@@H](O[C@@H]6O[C@H](CO)[C@@H](O)[C@H](O)[C@H]6O[C@@H]6O[C@@H](C)[C@H](O)[C@@H](O)[C@H]6O)C5(C)C)[C@]4(C)C(=O)C[C@]23C)O1` [Picfeltarraenin IB]: 2.2%; `COC(=O)[C@@]12OC[C@]34[C@H]([C@@H](O)[C@@H]1O)[C@@]1(C)CC(=O)C(O)=C(C)[C@@H]1C[C@H]3OC(=O)[C@H](OC(C)=O)[C@@H]24` [Bruceine B]: 28.2%; `CCCCCCCCCCCCCCCCCCCC(=O)O` [Arachidic acid]: -0.1%.

On to `C[C@@H]1O[C@@H](O[C@H]2[C@H](Oc3cc(O)c4c(c3)O[C@H](c3ccc(O)cc3)CC4=O)O[C@H](CO)[C@@H](O)[C@@H]2O)[C@H](O)[C@H](O)[C@H]1O` [Naringin], for which the “OC43 Inhibition rate” value is on record as 9.3%. As to `COc1ccc(CCc2cc(OC)c(OC)c(OC)c2)cc1O` [Erianin], the “OC43 Inhibition rate” value is -1.4%. Still for that read-out and setting: then `CN1CCc2cc3c(cc2C(=O)Cc2cc4c(cc2C1)OCO4)OCO3` [Protopine], with -5.7%. For the compound `O=c1ccn([C@@H]2O[C@H](COP(=O)(O)O)[C@@H](O)[C@H]2O)c(=O)[nH]1` [Uridine 5'-monophosphate], where the note is “OC43 Inhibition rate, 24 h”, the “OC43 Inhibition rate” value is recorded as 0.6%. In the case of `O=c1c(O[C@@H]2O[C@H](CO[C@@H]3O[C@H](CO)[C@@H](O)[C@H](O)[C@H]3O)[C@@H](O)[C@H](O)[C@H]2O)c(-c2ccc(O)c(O)c2)oc2cc(O)cc(O)c12` [Quercetin 3-gentiobioside], the “OC43 Inhibition rate” value is reported as 3.9%.

Turning to `OC[C@H]1O[C@@H](O[C@@H]2OC=C[C@H]3[C@H](O)[C@@H]4O[C@]4(CO)[C@@H]23)[C@H](O)[C@@H](O)[C@@H]1O` [Catalpol], the “OC43 Inhibition rate” value is recorded as -0.6%. In the case of `CCC(O)CC` [3-Pentanol], the “OC43 Inhibition rate” value is given as 0%. On the same count and under the same terms, next, `C[C@H](CC(=O)O)[C@H]1CC[C@H]2[C@@H]3[C@H](O)C[C@@H]4C[C@H](O)CC[C@]4(C)[C@H]3C[C@H](O)[C@]12C` [Norcholic acid]: 0.2%. Still for that read-out and setting: next, `C/C=C/c1ccc(O)c(OC)c1` [Isoeugenol]: 3.5%.

As for `COc1cc(C(C)=O)cc(OC)c1O` [Acetosyringone], the “OC43 Inhibition rate” value is -1.8%.

Take `OC[C@H]1O[C@H](O[C@H]2O[C@H](CO)[C@@H](O)[C@H](O)[C@H]2O)[C@H](O)[C@@H](O)[C@@H]1O` [D-(+)-Trehalose dihydrate]: under “OC43 Inhibition rate, 24 h”, the “OC43 Inhibition rate” value is reported as -0.7%.

Consider `CC(C)=CCC/C(C)=C\CO` [Nerol], for which the “OC43 Inhibition rate” value stood at 0.6%. Same read-out and setting: then `COc1cc(-c2oc3cc(O[C@@H]4O[C@H](CO)[C@@H](O)[C@H](O)[C@H]4O)cc(O)c3c(=O)c2O)ccc1O` [Brassicin], with 0.2%; and `Cc1ncccc1O` [3-Hydroxy-2-methylpyridine], with 1.2%; and `C=C(CC[C@@H](C(=O)O)[C@H]1[C@H](O)C[C@@]2(C)C3=C(CC[C@]12C)[C@@]1(C)CC[C@H](OC(C)=O)C(C)(C)[C@@H]1CC3)C(C)C` [Pachymic acid], with -1.9%.
